This is an account of results in publication PMC8315060, “N-terminus-independent activation of c-Src via binding to a tetraspan(in) TM4SF5 in hepatocellular carcinoma is abolished by the TM4SF5 C-terminal peptide application” (Theranostics, 2021).

Protein sequences, listed by entry. Tags and fused reporters are not part of them. Lines headed by an entry give the natural chain unless they say otherwise; changes in a name come on top.
UniProt O14894: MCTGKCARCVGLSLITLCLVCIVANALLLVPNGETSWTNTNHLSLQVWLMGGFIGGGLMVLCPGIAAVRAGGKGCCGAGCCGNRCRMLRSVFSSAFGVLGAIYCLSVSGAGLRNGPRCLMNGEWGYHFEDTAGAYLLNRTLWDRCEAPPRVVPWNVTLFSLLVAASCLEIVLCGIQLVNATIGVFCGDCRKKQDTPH
UniProt Q05397: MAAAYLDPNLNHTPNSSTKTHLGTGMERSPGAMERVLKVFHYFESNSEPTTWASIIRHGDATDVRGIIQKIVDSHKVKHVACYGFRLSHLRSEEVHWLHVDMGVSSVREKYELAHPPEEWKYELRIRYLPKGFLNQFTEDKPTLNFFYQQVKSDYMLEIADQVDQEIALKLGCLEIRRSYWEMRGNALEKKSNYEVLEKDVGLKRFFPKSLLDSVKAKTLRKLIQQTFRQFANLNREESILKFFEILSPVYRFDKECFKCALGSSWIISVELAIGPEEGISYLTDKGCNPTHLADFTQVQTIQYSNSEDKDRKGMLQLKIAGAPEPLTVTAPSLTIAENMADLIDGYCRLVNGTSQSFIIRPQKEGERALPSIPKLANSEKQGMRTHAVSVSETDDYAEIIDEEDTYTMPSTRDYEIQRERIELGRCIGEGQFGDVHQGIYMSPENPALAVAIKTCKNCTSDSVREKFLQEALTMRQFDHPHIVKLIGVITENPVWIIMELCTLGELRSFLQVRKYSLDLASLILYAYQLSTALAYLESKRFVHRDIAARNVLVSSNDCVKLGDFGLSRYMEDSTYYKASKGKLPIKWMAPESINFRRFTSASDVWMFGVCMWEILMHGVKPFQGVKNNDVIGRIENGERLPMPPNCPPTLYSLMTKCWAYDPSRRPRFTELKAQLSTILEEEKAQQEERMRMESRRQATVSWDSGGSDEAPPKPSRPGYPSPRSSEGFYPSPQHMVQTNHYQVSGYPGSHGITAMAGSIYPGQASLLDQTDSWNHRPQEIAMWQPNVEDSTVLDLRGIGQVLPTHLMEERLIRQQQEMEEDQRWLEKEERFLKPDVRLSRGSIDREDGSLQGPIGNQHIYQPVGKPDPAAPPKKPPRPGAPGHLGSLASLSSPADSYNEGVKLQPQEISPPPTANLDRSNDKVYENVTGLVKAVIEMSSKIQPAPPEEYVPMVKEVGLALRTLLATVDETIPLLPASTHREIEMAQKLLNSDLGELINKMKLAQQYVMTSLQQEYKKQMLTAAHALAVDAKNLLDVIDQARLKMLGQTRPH

Like-named read-outs stand apart in the source and are kept apart here. Results are given in words; binding and its absence hold for the method and conditions named. In cells and extracts the contact can be indirect. Some binding calls cover weakened binding; strength is not graded here.

The target of test [1] is endogenous TM4SF5 (human (endogenous in HepG2)) (UniProt O14894). Description: co-IP; endogenous proteins; HepG2 lysates precipitated with anti-TM4SF5 or anti-c-Src (sc-8056) antibody, normal IgG as control, immunoblot for FAK, c-Src and TM4SF5. (In general: In western blotting, separated proteins are transferred to a membrane and probed.)
The target in test [2] is FLAG-tagged TM4SF5 (human) (UniProt O14894). Nature of the test: co-IP; FLAG-TM4SF5 forms precipitated with anti-FLAG beads from whole cell lysates of stable SNU761 cells, immunoblot; in some panels PTP1B co-transfected or siPTP1B.
Test [3] concerns the target STrEP-tagged TM4SF5WT (UniProt O14894). Nature of the test: co-IP; STrEP-tagged TM4SF5 precipitated with streptavidin beads from whole cell lysates of stably or transiently (48 h) transfected SNU449 cells, immunoblot; lysis buffer 1% Brij58, 150 mM NaCl, 20 mM HEPES pH 7.4, 2 mM MgCl2, 2 mM CaCl2; overnight in a cold room; in one panel cells treated with TSAHC 20 uM 24 h.

For test [4] the target is unchanged. Described as above. The source holds these as a separate data set.
Test [5] addresses STrEP-tagged TM4SF5_(C189A) mutant (human) (UniProt O14894). The test is described as above.

For “endogenous FAK (focal adhesion kinase) (from UniProt Q05397 1-1052)”, the binding result (in test [1]; in test [2]; in the test with STrEP-tagged TM4SF5WT [3]) was “binds” throughout.

B1: Protein tyrosine phosphatase 1B (PTP1B) (enzyme, UniProt P18031 1-435)
chain: MEMEKEFEQIDKSGSWAAIYQDIRHEASDFPCRVAKLPKNKNRNRYRDVSPFDHSRIKLHQEDNDYINASLIKMEEAQRSYILTQGPLPNTCGHFWEMVWEQKSRGVVMLNRVMEKGSLKCAQYWPQKEEKEMIFEDTNLKLTLISEDIKSYYTVRQLELENLTTQETREILHFHYTTWPDFGVPESPASFLNFLFKVRESGSLSPEHGPVVVHCSAGIGRSGTFCLADTCLLLMDKRKDPSSVDIKKVLLEMRKFRMGLIQTADQLRFSYLAVIEGAKFIMGDSSVQDQWKELSHEDLEPPPEHIPPPPRPPKRILEPHNGKCREFFPNHQWVKEETQEDKDCPIKEEKGSPLNAAPYGIESMSQDTEVRSRVVGGSLRGAQAASPAKGEPSLPEKDEDHALSYWKPFLVNMCVATVLTAGAYLCYRFLFNSNT
B1: the binding result (with STrEP-tagged TM4SF5WT [4]; in test [5]) was “binds” in each case.
